Experimental data from patent US20240000786A1, “COMPOSITION FOR ENHANCING INTRA-CELLULAR NITRIC OXIDE GENERATION” (INSTITUTE OF LIFE SCIENCES, priority 2020, published 2024).
Results are given in words; binding and its absence hold for the method and conditions named. Some binding calls cover weakened binding; strength is not graded here.

Experiments:
[1] = molecular target: T1, recombinant Nitric oxide synthase interacting protein (NOSIP) (Homo sapiens (Human)) (UniProt Q9Y314); experiment: ITC at 25 C, rNOSIP in the syringe titrated into iNOS peptide PP2 in the cell
T1 sequence: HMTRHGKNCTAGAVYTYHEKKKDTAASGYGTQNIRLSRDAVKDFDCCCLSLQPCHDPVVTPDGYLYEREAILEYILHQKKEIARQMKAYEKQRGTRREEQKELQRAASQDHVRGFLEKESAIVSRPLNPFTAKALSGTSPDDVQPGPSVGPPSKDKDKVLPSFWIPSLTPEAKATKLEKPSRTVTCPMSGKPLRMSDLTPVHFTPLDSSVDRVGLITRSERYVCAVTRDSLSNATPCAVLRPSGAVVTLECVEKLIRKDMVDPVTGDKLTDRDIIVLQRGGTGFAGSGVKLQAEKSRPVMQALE

[2] = molecular target: T1, recombinant Nitric oxide synthase interacting protein (NOSIP) (Homo sapiens (Human)); experiment: ITC; the same paragraph also says the SPR titration shows a dose dependent interaction between NOSIP and iNOS peptide 2

B1: iNOS Peptide-2 (18 mer iNOS peptide) (peptide)
peptide: NQYYGSFKEAKIEEHLAR
notes: 18-residue iNOS-derived peptide, synthesized commercially by China peptides; also called PP2; PP-2
B1 was tested, and the binding [1] was “binds” and the binding [2] was “binds”.
